Source: patent US10695428B2, “Use of a photosensitive agent capable of producing reactive oxygen species in the production of a drug for the photodynamic therapy of a disease related to stem cells, in vitro use, and pharmaceutical composition” (UNIVERSIDAD AUTONOMA DE MADRID, priority 2012, dated 2020)
“Also recorded” adds a separate entry of the source. At least one compound was matched to its structure with a doubt left.

Legend:
Format in all cases: in vivo, mice (C57BL/6)
[1] = system: epidermal stem cells of the prominent region of the hair follicle; test: Label retaining cells (LRCs) in toto mounts of tail epidermis after PDT-MAL; details: immunofluorescence anti-BrdU, two days after treatment, vs controls
[2] = system: skin of the back (epidermis and dermis); test: Histology (H-E) of dorsal skin after PDT-MAL; details: for density of collagen fibers of the dermis: eosin fluorescence, 6 days or 7 days after PDT
hair follicle = test: Hair growth in shaved dorsal skin after PDT; details: H-E, 26 days after PDT, control HFs in telogen
Pr12c3 mRNA = test: qRT-PCR of Pr12c3 mRNA in skin of the back
proliferin-2 (Pr12c3) = test: Immunofluorescence of proliferin-2 in histological sections of dorsal skin

COC(=O)CCC(=O)CN [PDT-MAL, methyl aminolevulinate]
number of LRCs in the prominent region of the hair follicle ([1]; P<0.001): significant increase
number of LRCs in the prominent region of the hair follicle ([1]; P<0.001, listed as PDT): significant increase in LRCs
hyperplasia in the epidermis ([2]; H-E, most apparent 2 days after treatment, reverted 6 days or 7 days after): transient hyperplasia
density of collagen fibers of the dermis [2]: sharp increase in the density of collagen fibers
density of collagen fibers of the dermis ([2]; listed as PDT): increase in the density of collagen fibers
hair follicle cycle phase in histological sections (hair follicle): progress of the anagen phase
Pr12c3 mRNA expression (relative quantification) (Pr12c3 mRNA; six days after the treatment): no significant changes
Pr12c3 mRNA expression (relative quantification) (Pr12c3 mRNA; skin of the back, two days after PDT-MAL, 18S rRNA normalised, P<0.001): induction of the mRNA of Pr12c3
localization of proliferin-2 protein (proliferin-2 (Pr12c3); control: diffuse pattern in cytoplasm): novel nuclear localization
proliferin-2 expression in the epidermis (proliferin-2 (Pr12c3); vs control animals): increase in proliferin-2 expression in the epidermis; also recorded: increase in the expression levels
